Reference: publication doi:10.1101/2025.09.22.677762
These are yes or no findings as the source states them, for the method shown. Binding seen in cells or lysates may run through a third protein.

Molecular target: T1, T13F2.2 (C. elegans (endogenous in N2 worms)) (UniProt Q94045)
T1 sequence: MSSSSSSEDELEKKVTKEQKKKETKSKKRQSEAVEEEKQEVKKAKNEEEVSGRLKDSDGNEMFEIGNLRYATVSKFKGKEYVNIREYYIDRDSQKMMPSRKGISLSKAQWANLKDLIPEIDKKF
Test: co-IP

With “histone H2B (C. elegans (endogenous in N2 worms))” the binding was “no binding”.
